PubChem BioAssay AID1259308 – NCATS – 2017

Assay: 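Candidate targets for better recombinant protein yield in mammalian cells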 (primary screen)
System: human HEK293 embryonic kidney cells stably expressing firefly luciferase (HEK-CMV-Luc2-Hygro)
Reagent: single siRNA against human genes, 0.8 pmol siRNA per well
Duration: 72 h
Measurement: 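Luciferase light (ONE-Glo) measured on one replicate plate set and viability (CellTiter-Glo) on the other, scaled to a negative control siRNA, with robust z-scores and luciferase per cell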
Scale: total luciferase, z-score and total luciferase, % of control: higher = more reporter protein produced; luciferase per cell, z-score: higher = more reporter output per viable cell; viable cells, % of control: higher = more viable cells
Hit rule: 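An siRNA counts as active if its total luciferase robust z-score exceeds 3; genes with two or more such siRNAs out of three were retested with fresh siRNAs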
Calls: active = raised luciferase; inactive = no rise
This is a random part of about 59,000 reagents tested. Over the whole deposit, about 1,510 (2.6%) got an active call. 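Calls use total luciferase alone and ignore viability, so some active siRNAs may act by altering cell number.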 No sequences are given here.

Target gene	PubChem SID	total luciferase, z-score	total luciferase, % of control	luciferase per cell, z-score	viable cells, % of control	Call
DBNDD2	SID160733630	0.897	99.7	1.2	81.3	inactive
DBNDD2	SID160744547	3.03	142	2.5	82.2	active
DBNDD2	SID160744548	0.0856	83.6	-0.0607	94.9	inactive
SYVN1	SID160752267	0.166	85.2	0.0914	92.9	inactive
SYVN1	SID160752269	-1.01	61.7	-0.0401	69.7	inactive
SYVN1	SID160752270	-0.149	78.9	-0.404	98.1	inactive
ZNF469	SID160752468	-1.51	51.8	-0.494	66	inactive
ZNF469	SID160752469	-0.213	77.7	0.084	84.9	inactive
ZNF469	SID160752470	-0.871	64.6	0.173	68.9	inactive

Targets above whose gene name begins with D or d (3):
Target gene	PubChem SID	total luciferase, z-score	total luciferase, % of control	luciferase per cell, z-score	viable cells, % of control	Call
DBNDD2	SID160733630	0.897	99.7	1.2	81.3	inactive
DBNDD2	SID160744547	3.03	142	2.5	82.2	active
DBNDD2	SID160744548	0.0856	83.6	-0.0607	94.9	inactive

The list goes on:
Target gene	PubChem SID	total luciferase, z-score	total luciferase, % of control	luciferase per cell, z-score	viable cells, % of control	Call
ELOVL3	SID160751089	0.263	87.1	-0.23	103	inactive
ELOVL3	SID160751090	-0.601	69.9	-0.22	82.8	inactive
ELOVL3	SID160751091	2.25	127	1.53	94.4	inactive
OR10J5	SID160756615	0.837	98.5	0.818	88.8	inactive
OR10J5	SID160756616	-0.572	70.5	0.155	75.6	inactive
OR10J5	SID160756617	-0.068	80.5	-0.638	106	inactive
UPK3A	SID160718646	-0.22	77.5	0.791	70.3	inactive
UPK3A	SID160718647	0.42	90.2	2.01	59.3	inactive
UPK3A	SID160718648	0.16	85.1	0.189	90.4	inactive
RGS21	SID160767624	0.149	84.9	0.219	89.5	inactive
RGS21	SID160767625	0.725	96.3	1.11	80.4	inactive
RGS21	SID160767626	2.6	134	1.7	95.5	inactive
MTHFD1LP1	SID160733934	0.0594	83.1	-0.849	116	inactive
MTHFD1LP1	SID160769536	4	162	4.23	59.2	active
MTHFD1LP1	SID160769537	-0.314	75.6	-0.612	99.3	inactive
